Source: patent US20240124714A1, “NEAR INFRARED DYES FOR BIOLOGICAL IMAGING AND OPTOELECTRONIC DEVICES” (Mississippi State University, priority 2022, published 2024)

Assay: Integrated photoacoustic signal versus dye concentration, limit of detection
Format: physicochemical
Conditions: in ethanol
Protocol: The Limits Of Detection (LOD) was determined to be 0.36 μM according to the following equation (LOD=3×blank×SD of slope/(1-slope)^2. Photoacoustic A imaging was performed on an iThera Medical MSOT inVision 128 tomographer. Next, it was established that there was a linear relationship between dye concentration and the PA signal up to the highest concentration tested (2.0 μM) and a limit of detection of 0.36 μM in ethanol (FIG. 3D).

SMILES: CCOC(=O)c1ccccc1C1=c2cc/c(=C3/C=CC(=[N+]4CCCCC4)S3)cc2Oc2cc(-c3ccc(N4CCCCC4)s3)ccc21.[Cl-] [XanthCR-880, 1-{5-[(3E)-9-[2-(Ethoxycarbonyl)phenyl]-6-[5-(piperidin-1-yl)thiophen-2-yl]-3H-xanthen-3-ylidene]-2,5-dihydrothiophen-2-ylidene}-1λ5-piperidin-1-ylium chloride]
- limit of detection (LOD) of photoacoustic signal: 0.36 µM
- linear relationship between dye concentration and PA signal, up to highest concentration tested: ≤ 2.0 µM
